Publication PMC4751363

Chains of the proteins cited; added tags and fusions are not shown. Lines headed by an entry give the natural chain unless they say otherwise; changes in a name come on top.
UniProt Q9Z0F8: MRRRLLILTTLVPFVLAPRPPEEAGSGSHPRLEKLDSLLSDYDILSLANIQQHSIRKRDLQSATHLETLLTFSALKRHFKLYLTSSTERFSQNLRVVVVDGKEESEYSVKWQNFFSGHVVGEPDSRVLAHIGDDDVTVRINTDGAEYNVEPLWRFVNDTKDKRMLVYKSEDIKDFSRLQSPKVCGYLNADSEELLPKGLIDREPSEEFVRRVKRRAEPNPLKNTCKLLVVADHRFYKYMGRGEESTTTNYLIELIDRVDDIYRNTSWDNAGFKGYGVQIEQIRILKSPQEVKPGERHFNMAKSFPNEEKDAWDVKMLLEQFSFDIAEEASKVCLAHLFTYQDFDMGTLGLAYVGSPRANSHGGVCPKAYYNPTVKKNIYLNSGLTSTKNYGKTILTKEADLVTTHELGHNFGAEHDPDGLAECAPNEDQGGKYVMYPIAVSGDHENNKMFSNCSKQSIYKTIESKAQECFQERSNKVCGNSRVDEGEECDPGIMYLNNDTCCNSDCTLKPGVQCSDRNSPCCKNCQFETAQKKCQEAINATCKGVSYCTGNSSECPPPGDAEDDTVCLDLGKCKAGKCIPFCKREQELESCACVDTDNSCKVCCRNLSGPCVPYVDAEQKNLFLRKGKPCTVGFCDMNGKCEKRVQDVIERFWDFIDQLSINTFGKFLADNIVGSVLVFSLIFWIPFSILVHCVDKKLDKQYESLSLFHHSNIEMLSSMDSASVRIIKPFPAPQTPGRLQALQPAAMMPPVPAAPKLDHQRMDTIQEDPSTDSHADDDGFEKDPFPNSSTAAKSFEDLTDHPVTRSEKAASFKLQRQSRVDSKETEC

Molecular target: T1, FLAG-tagged mouse Tspan14 (mouse) (UniProt Q8QZY6)
T1 sequence: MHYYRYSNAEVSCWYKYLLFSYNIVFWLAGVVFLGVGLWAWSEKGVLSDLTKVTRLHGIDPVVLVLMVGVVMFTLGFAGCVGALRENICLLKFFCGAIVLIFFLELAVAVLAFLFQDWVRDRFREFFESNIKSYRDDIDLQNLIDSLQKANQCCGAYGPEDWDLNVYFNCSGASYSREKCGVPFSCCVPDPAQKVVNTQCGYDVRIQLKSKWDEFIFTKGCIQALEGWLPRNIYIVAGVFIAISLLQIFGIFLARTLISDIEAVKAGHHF
Test: co-IP; HEK-293T co-transfected with FLAG-tagged mouse TspanC8s and HA-tagged mouse ADAM10/ADAM17 constructs or pDisplay human ADAM10 truncations; 1% digitonin lysis; anti-FLAG immunoprecipitation; anti-HA blot

binding: no binding
Substance: C-terminal HA-tagged mouse ADAM17 (from UniProt Q9Z0F8) (enzyme)

These are yes or no findings as the source states them, for the method shown. Binding seen in cells or lysates may run through a third protein. Tags and fused reporters may be left off the sequences shown.
